Out of some 320,000 compounds screened, about 2,100 (0.66%) were called active. The shares of active, inactive and inconclusive entries below differ from those in the screen. Calls follow the shape of the dose curve; as a rule, active = well fitted inhibition curve with a large enough effect in the signal ratio, with a control signal flat (not every such curve was filed as active); inconclusive = small, poorly fitted or top-dose-only effect, or effect the other way, or a change in a side signal; inactive = flat fitted curve, though single readings scatter; the % refers to the signal ratio. Where the call is inconclusive, the potency comes from a doubtful curve fit.
Test: qHTS Assay for Lipid Storage Modulators in Drosophila S3 Cells
Conditions: BODIPY lipid droplet fluorescence, 18-24 h, cells fed with added oleic acid; lipid storage change, negative = inhibition: at 46.1 µM (top of the series) unless noted
Method in brief: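 Drosophila S3 cells loaded with oleic acid (400 uM, as added) and compounds at several concentrations; lipid droplets imaged by 488-nm laser-scanning cytometry, 500–530 nm intensity and object ratio to cell channel. Percent activity normalized to 20 uM Triacsin C.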
% is scaled to controls: 0 for no effect and ±100 for the full control effect; potency is read from the fitted curve at half-maximal effect.

Potency, inconclusive:
CS(=O)(=O)N1CCCC(C(=O)NCc2ccco2)C1 (stereo not given) 6.51 µM [falling, single point], Cc1ccc(-c2n[nH]c3c2C(c2cccc(O)c2)N(c2ccc(C(=O)O)cc2)C3=O)cc1 (stereo not given) 18.4 µM [activator, single point], COC(=O)c1cc(C(=O)OCC(=O)NC(=O)NCc2ccccc2)cc([N+](=O)[O-])c1 2.59 µM [activator, partial curve, poor fit], CC(CCc1ccccc1)NC(=O)CCC(=O)N1CCC(C(=O)O)CC1 (stereo not given) 29.1 µM [activator, single point], COC(=O)c1c(NC(=O)CN2C(=O)NC(CCc3ccccc3)C2=O)sc2c1CCCCC2 (stereo not given) 7.31 µM [activator, partial curve, poor fit], CC1CCN(CCC(=O)Nc2ccc(F)c(F)c2)CC1 0.58 µM [activator, single point], CCCCNc1nc(NC)nc(Cl)c1SC 0.116 µM [falling, full curve, poor fit], CNS(=O)(=O)c1ccc(N2CCCC2=O)c([N+](=O)[O-])c1 25.9 µM [falling, single point], Nc1ccc(-c2nc3ccc(N)cc3o2)cc1 23.1 µM [activator, single point], COC(=O)CC/C(O)=C1\C(=O)CC(C)(C)CC1=Nc1ccccc1OC 29.1 µM [activator, single point], CC(=O)c1cccc(NC(=O)/C(=C/c2ccncc2)NC(=O)c2ccccc2)c1 16.4 µM [falling, partial curve, poor fit], COc1ccc(CCNS(=O)(=O)c2cccc([N+](=O)[O-])c2)cc1 0.731 µM [falling, partial curve, poor fit], CN(Cc1ccc(F)cc1)S(=O)(=O)c1nnc(NC(=O)c2ccccc2Br)s1 6.51 µM [falling, single point]

Potency, active:
COc1cc(C=O)ccc1OCC(=O)Nc1ccccc1N1CCOCC1 2.59 µM

Lipid storage change, negative = inhibition, inconclusive:
Cc1ccc2nsnc2c1S(=O)(=O)N1CCN(CCc2ccccc2)CC1 2.2%, Cc1cc(C)n2nc(C(=O)OCC(=O)c3c[nH]c4ccccc34)nc2n1 -0.819%, CCNC(=O)OCc1cn(-c2ccccc2)nn1 13.6%, CCOc1ccc(C2c3c(oc4cc(C)c(C)cc4c3=O)C(=O)N2CCCN2CCOCC2)cc1 (stereo not given) 0.627%, Cc1cc(NC(=O)NCc2ccccc2)c(=O)n(Cc2ccc(F)cc2)c1 -162%, O=C(CN1C(=O)NC2(CCc3ccccc32)C1=O)Nc1cc(C(F)(F)F)ccc1N1CCOCC1 (stereo not given) 58.8%, O=S(=O)(NCc1cccnc1)c1cccn1-c1ncc(C(F)(F)F)cc1Cl 43.9%, Cc1onc(-c2ccccc2Cl)c1C(=O)Nc1nnc(C(C)C)s1 -30.3%, Cn1cc(CN2CCCC(C(=O)c3cccs3)C2)c(-c2cccc(Cl)c2)n1 (stereo not given) 19.5%, O=C(COC(=O)c1ccc(Cl)nc1)NCCC1=CCCCC1 11%, CC(C)CC1NC(=O)N(Cc2cc(=O)n3ccsc3n2)C1=O (stereo not given) 12% [at 9.22 µM], O=C(OCC1CCCN2CCCCC12)c1ccc2c(c1)OCO2 (stereo not given) 5.82%, COC(=O)C1=C(C)N(C)C(=S)NC1c1c(OC)ccc2ccccc12 (stereo not given) 143%, COc1cccc(C(=O)c2cc3cc(Cl)ccc3[nH]2)c1 6.19%, COC(=O)c1c(NC(=O)CCCC(=O)O)sc(C)c1C 46.7%, CSc1ccc(C2=CC(=O)C[C@H](c3ccc(F)cc3)C2)cc1 -21.3%, CSc1ncccc1C(=O)N(C)CC(=O)Nc1ccc(Cl)c(C(F)(F)F)c1 -7.46%, CC(NC(=O)CN(C)Cc1cccs1)c1ccccc1 (stereo not given) 8.99%, O=c1cnc2cc([N+](=O)[O-])ccc2[nH]1 33.1%, Cc1ccc(C(=O)Oc2cc(N)n(S(=O)(=O)c3ccc(F)cc3)n2)cc1 18.4%, COCCN(C(=O)COC(=O)c1cccs1)c1c(N)n(Cc2ccccc2)c(=O)[nH]c1=O -8.27%, COc1ccc(S(=O)(=O)N2CCC(C(N)=O)(N3CCCCC3)CC2)cc1 6.81%, NC(=S)n1[nH]c(-c2ccc([N+](=O)[O-])cc2)c(N=Nc2cccc([N+](=O)[O-])c2)c1=O -29.2%, COC(=O)c1ccc(CSc2ncnc3ccccc23)o1 34.6%, CCC1=NC(c2ccc(Br)cc2)N(O)C1(C)C (stereo not given) -14.1%, CCC(=O)c1ccc(OCC(=O)OC(C)C(=O)N2CCc3ccccc32)cc1 (stereo not given), CCOC(=O)c1ccccc1NC(=O)COC(=O)CCNS(=O)(=O)c1cccs1, O=C(Cn1cncn1)N1CCN(c2ccc(F)cc2)CC1 -9.24%, Cc1nn(C)cc1CN(C)Cc1ccc(OCC(O)CN2CCCCC2)cc1 (stereo not given) 6.75%, CC1(C)C(=O)OC(/C=C\c2ccccc2)C(C)(C)C1=O (stereo not given) -34.9%, CCC(NC(=O)c1cc(COc2cncc(Cl)c2)on1)c1ccc(C)cc1 (stereo not given) -32.6%, CC(=O)N1CC(=O)N(CC(=O)Nc2ccc(Br)cc2)C1=S 12.4%, Cc1ccc(C(=O)C=CNNC(=O)c2ccccc2)cc1 -21.4%, COc1ccc(NC(=O)c2cc(F)c(F)cc2Cl)cc1Cl 8.25%

Lipid storage change, negative = inhibition, inactive:
Cc1ccc(S(=O)(=O)NC2=NCCCCC2)cc1, COc1ccc(N(CC(=O)NC2CCCC2)C(=O)Cn2nnc(-c3ccc(F)cc3)n2)cc1

From PubChem BioAssay AID2685 (National Center for Advancing Translational Sciences (NCATS), 2010)
